Assay results from patent US20220153782A1 (MEMORYPLUS LTD., priority 2019, published 2022).
Where no end group is shown, it is not given here. The star is where a group is joined. Lauroyl = CCCCCCCCCCCC(=O)*

Assay: general procedure: Fmoc solid-phase peptide synthesis; HCTU
Conditions: whole synthesis, 220 nm, trifluoroacetate salt

| Substance | final HPLC purity |
| --- | --- |
| Lauroyl-QHSQITKV | 99.45% |
| Lauroyl-QHTQITKV | 98.14% |
